Where a sequence shows no end group, the ends are not given.

The data set in a line: general procedure: Fmoc solid-phase peptide synthesis; polystyrene Breipohl amide resin; DIPCDI/HOBt. Conditions: whole synthesis, analytical reversed-phase HPLC.

Turning to KWFETWFTEWPKKRK, the “final HPLC purity” value came out at 98%. The value for RKKRRQRRR was 99%.

These data come from publication PMC7497323 (2020).
